Data: PubChem BioAssay AID588497 (NMMLSC, 2011)
Values joined by “and” are separate entries in the source; they are usually repeats but may differ in a detail not shown here. Identical values can stand only once. Screen size: about 360,000 compounds; about 780 (0.22%) were called active. Inconclusive means that the source gave no clear call. Such entries were picked first, then a sample of the others. Rule as the data show it: active = inhibition above about 35% (passing the limit was not always enough); inconclusive = no clear call, values can overlap the other calls.

These compounds were tested on Botulinum neurotoxin type F light chain protease (Clostridium botulinum) (assay: BoNT/F light chain protease inhibitors, primary screen, biochemical, flow cytometry, MLPCN library (AID 588497; also: plate controls were buffer without enzyme for full effect and enzyme alone for no effect)). Conditions: Multiplex microsphere protease cleavage assay, at 10 µM, stronger effect = higher value.
`O=C(CSc1nc2cccnc2n1Cc1ccccc1)NCc1ccco1` was tested, and the inhibition was inconclusive: 9.2%.
In the case of `CCOC(=O)c1[nH]c2cc3c(cc2c1NC(=O)CN1CCCC1)OCO3`, the inhibition is reported as inactive: -2.4%.
In the case of `CCc1ccc(-c2cn3c(n2)SCC3)cc1`, the inhibition is reported as inactive: -0.3%.
With `COc1ccc2nc(NCc3cccnc3)sc2c1` the inhibition was inconclusive: -24.3%.
With `COc1cccc2cc(C(=O)C3=C(O)C(=O)N(CCN4CCOCC4)C3c3ccc(Cl)cc3)oc12` (stereo not drawn) the inhibition was inconclusive: -74.2%.
With `CCn1c(=O)c(=O)[nH]c2cc(C(=O)NC3CCCc4ccccc43)ccc21` (stereo not drawn) the inhibition was inconclusive: -31.9%.
With `CCCCCCSc1cc(-c2nc3cc(C)ccn3c2NCCCC)ccc1OC` the inhibition was inactive: -3.6% and inactive: -5.9%.
`CC(C)Sc1nc(N)nc(-c2cccs2)c1C#N` was tested, and the inhibition was inactive: -8.2%.
For `COc1ccccc1NS(=O)(=O)c1cccc(NC(=O)Cc2cccs2)c1`, the inhibition was inactive: -12.3%.
For `Cc1ccc(CN2C(=O)CC(Nc3ccc(N4CCOCC4)cc3)C2=O)cc1` (stereo not drawn), the inhibition was inconclusive: 20.2%.
In the case of `COc1cc2c(cc1OC)C(c1cc(Br)ccc1O)N(C(C)=O)CC2` (stereo not drawn), the inhibition is reported as inconclusive: 17.7%.
`CC(C)C(=O)NNc1ccc(C(F)(F)F)cn1` was tested, and the inhibition was inconclusive: -47.1%.
`O=C(NCC1(c2ccccc2)CCCC1)c1ccc(Br)cc1` was tested, and the inhibition was inactive: -4.7%.
For `Cc1c(Cl)cccc1NC(=S)NCCc1ccccn1`, the inhibition was inconclusive: -75.4%.
`CCCCc1nc2ccccc2c(NC(=O)CN(CC)CC)c1CCC` was tested, and the inhibition was inconclusive: -32.3%.
`Cc1ccc(C)c(NC(=S)NCc2ccccc2)c1` was tested, and the inhibition was inconclusive: -39.7%.
`O=C(NC1CCCCCCC1)c1ccc(Br)o1` was tested, and the inhibition was inconclusive: 17.9%.
For `COc1ccc(C2C(C(=O)OCC(=O)Nc3ccc(C)cc3)CCC(=O)N2c2ccc(OC)cc2)cc1` (stereo not drawn), the inhibition was inconclusive: -20.5%.
`CCn1c(-c2ccsc2)nc2c1c(=O)[nH]c(=O)n2Cc1ccccc1` was tested, and the inhibition was inactive: -7.2%.
In the case of `CCn1nc(C)c(Br)c1-c1nc(CS(=O)(=O)c2ccsc2)no1`, the inhibition is reported as inconclusive: -31.1%.
In the case of `CCc1ccc(S(=O)(=O)NCc2ccc(N3CCN(C)CC3)cc2)cc1`, the inhibition is reported as inconclusive: 30.6%.
For `Clc1cccc(CN2CCCCCC2)c1Cl`, the inhibition was inconclusive: -22.8%.
`O=C(Nc1ccccc1)O/N=C1/CCCc2occc21` was tested, and the inhibition was inconclusive: -25.5%.
In the case of `CCN(CC)CC(=O)Nc1ccc(C)cc1Br`, the inhibition is reported as inconclusive: -29.4%.
With `CCCn1cnnc1CNC(=O)[C@H]1O[C@@H](n2ccc(=O)[nH]c2=O)[C@H](O)[C@@H]1O` the inhibition was inactive: -2%.
`Cc1ccc2nc(-c3cccc(-c4cccc(Cl)c4)c3)c(NCc3ccccc3)n2c1` was tested, and the inhibition was inactive: -7.6%.
With `Cc1ccc(C(=O)Nc2ccc(CN3CCS(=O)(=O)CC3)cc2)cc1C` the inhibition was inconclusive: 13.2%.
For `CC(C)n1ncc2c(C(=O)NCc3cccnc3)cc(C3CC3)nc21`, the inhibition was inconclusive: -2%.
In the case of `O=C(NC1CCC(C(=O)O)CC1)OCc1ccccc1` (stereo not drawn), the inhibition is reported as inactive: 10.2% and inactive: -2.2% and inactive: -1.9%.
For `Cc1ccc(C)c(C(=O)CSc2nc(C)cc(=O)[nH]2)c1`, the inhibition was inconclusive: 12.3%.
`CN(C)C(=S)SCCn1c(N)nc(N(C)C)nc1=O` was tested, and the inhibition was inconclusive: 140%.
`O=C(NC(=S)Nc1ccccc1Br)c1cccnc1` was tested, and the inhibition was inconclusive: 4.1%.
With `O=C(NNC(=O)c1nn(-c2ccc(F)cc2)ccc1=O)Nc1cccc(Cl)c1` the inhibition was inconclusive: 2.6%.
`Cc1c(N2C(=O)C3C4C=CC(C4)C3C2=O)c(=O)n(-c2ccccc2)n1C` (stereo not drawn) was tested, and the inhibition was inconclusive: 140%.
In the case of `COc1ccccc1N1C(=O)C2C(C(=O)c3ccccc3)=NN(c3ccccc3)C2C1=O` (stereo not drawn), the inhibition is reported as inconclusive: -52.4%.
With `CC(Sc1nccn1C)C(=O)c1c(N)n(C)c(=O)n(C)c1=O` (stereo not drawn) the inhibition was inconclusive: -7.5%.
In the case of `Cc1nc(COc2ccc(C(=O)NCc3ccccc3CN3CCCCC3)cc2)cs1`, the inhibition is reported as inconclusive: -6.2%.
In the case of `S=C(Nc1cccnc1)Nc1ccccn1`, the inhibition is reported as inconclusive: -9.6%.
With `Cc1cc(Cl)ccc1OCC(=O)OCC(=O)N(CC(C)C)c1c(N)n(Cc2ccccc2)c(=O)[nH]c1=O` the inhibition was inconclusive: 25.7%.
In the case of `COc1cc2c(cc1OC)C(c1ccc(Cl)cc1)CC(=O)N2` (stereo not drawn), the inhibition is reported as inconclusive: -12.2%.
With `COc1ccc(-n2c(SCC(=O)N3CCCCC3)nnc2-c2cccnc2)cc1` the inhibition was inactive: -0.6%.
With `CC1(C)Cc2c(cnn2-c2ccc(F)cc2)C(NC(=O)CCC(F)(F)F)C1` (stereo not drawn) the inhibition was inconclusive: -22.3%.
With `CC(C)C(=O)NN(C(=O)C(C)C)c1nc2ccccc2s1` the inhibition was inconclusive: 107%.
`O=C(Nc1ccc(Br)c2ccccc12)c1ccc2ccccc2c1O` was tested, and the inhibition was inconclusive: 4.8%.
With `CCCOc1ccc(/C=C/c2c([N+](=O)[O-])c(=O)n(C)c(=O)n2C)cc1` the inhibition was inconclusive: 12.6%.
In the case of `CC(CC(=O)O)CC(=O)Nc1cc(C(F)(F)F)cc(C(F)(F)F)c1` (stereo not drawn), the inhibition is reported as inconclusive: -4.7%.
In the case of `Cc1cc(COc2ccccc2)oc1C(=O)O`, the inhibition is reported as inconclusive: -7.2%.
`CN(C)C(=O)c1ccc(NC(=O)c2ccccc2-c2ccccc2)cc1` was tested, and the inhibition was inconclusive: 17.3%.
In the case of `O=C(NC1=NN(c2ccccc2)CC1)Nc1ccccc1F`, the inhibition is reported as inactive: 6.2%.
With `CN(C)S(=O)(=O)c1ccc(C(=O)OCC(=O)c2csc(N3CCCCC3)n2)cc1` the inhibition was inconclusive: -7.4%.
For `CCCC[N+]12CCC(CC1)C(Cc1ccccc1)C2` (stereo not drawn), the inhibition was inconclusive: -3.9%.
In the case of `COc1ccc(Cc2nnc(NC(=O)c3ccccc3F)s2)cc1OC`, the inhibition is reported as inconclusive: -37.1%.
`COc1ccc(CN2CC[C@@H]3CN(C(C)=O)[C@H](c4ccccc4Br)C[C@@H]32)cc1` was tested, and the inhibition was inactive: 1.7%.
With `Cc1ccc(OCC(=O)Nc2ccncc2)cc1` the inhibition was inconclusive: -23.2%.
With `Cc1ccc(OC(=O)c2cc(C)nn2C(C)(C)C)cc1` the inhibition was inconclusive: -1.1%.
With `Cc1ccccc1C(=O)Nc1ccccc1NC(=O)c1ccccc1Br` the inhibition was inconclusive: -7.2%.
In the case of `COc1cccc(NC(=O)c2ccccc2Oc2ccccc2)c1`, the inhibition is reported as inconclusive: -11.2%.
For `CCOc1ccc(C(C)=O)cc1Cc1c(O)[nH]c(=S)[nH]c1=O`, the inhibition was inconclusive: -1.5%.
